Values of other authors as cited in publication PMC4977052, “On the Utility of ToxCast™ and ToxPi as Methods for Identifying New Obesogens” (Environmental Health Perspectives, 2016).

Legend:
PPARγ = settings: potency relative to cytotoxicity; ToxCast 2014 release; ref Filer et al. 2014; cited from earlier work
Human PPARγ = settings: potency relative to cytotoxicity; ToxCast 2014 release; ref Filer et al. 2014; cited from earlier work

Structure (SMILES): CC(C)Oc1cccc(NC(=O)c2ccccc2C(F)(F)F)c1 [Flutolanil]
- Tox21/NCGC Z-Score (panel A) (PPARγ): -3.1
- NovaScreen Z-Score (panel A) (Human PPARγ): -1.1

Structure (SMILES): O=C(Nc1ccc([N+](=O)[O-])cc1Cl)c1cc(Cl)ccc1O [Niclosamide]
- Tox21/NCGC Z-Score (panel A) (PPARγ): -7.4

Structure (SMILES): O=C(O)c1c(Cl)ccc2cc(Cl)cnc12 [Quinclorac]
- NovaScreen Z-Score (panel B) (Human PPARγ): 17.2

Structure (SMILES): Oc1cc(Cl)ccc1Oc1ccc(Cl)cc1Cl [Triclosan]
- NovaScreen Z-Score (panel A) (Human PPARγ): 2.1

Structure (SMILES): CCNc1nc(Cl)nc(NCC)n1 [Simazine]
- NovaScreen Z-Score (panel B) (Human PPARγ): 10.7

Structure (SMILES): N#Cc1nn(-c2c(Cl)cc(C(F)(F)F)cc2Cl)c(N)c1[S+]([O-])C(F)(F)F (stereo not shown) [Fipronil]
- NovaScreen Z-Score (panel A) (Human PPARγ): 10.8

Structure (SMILES): CCC(C)(C)C(=O)OC1=C(c2ccc(Cl)cc2Cl)C(=O)OC12CCCCC2 [Spirodiclofen]
- Tox21/NCGC Z-Score (panel B) (PPARγ): 4.3

Structure (SMILES): CCOP(=S)(OCC)SCCSCC [Disulfoton]
- NovaScreen Z-Score (panel B) (Human PPARγ): 10.6

Structure (SMILES): O=C(O)COc1nc(Cl)c(Cl)cc1Cl [Triclopyr]
- Tox21/NCGC Z-Score (panel A) (PPARγ): 5.3
- Tox21/NCGC Z-Score (panel B) (PPARγ): 5.3
- NovaScreen Z-Score (panel A) (Human PPARγ): 10.2
- NovaScreen Z-Score (panel B) (Human PPARγ): 10.2

Structure (SMILES): CCCCOC(=O)c1ccccc1C(=O)O [MBP]
- NovaScreen Z-Score (panel B) (Human PPARγ): 15.2

Structure (SMILES): CNC(=O)/C=C(\C)OP(=O)(OC)OC [Monocrotophos]
- Tox21/NCGC Z-Score (panel A) (PPARγ): -1.7
- NovaScreen Z-Score (panel A) (Human PPARγ): 0.3

Structure (SMILES): Cc1cc(Cl)ccc1OCC(=O)O [MCPA]
- Tox21/NCGC Z-Score (panel A) (PPARγ): 2.3
- Tox21/NCGC Z-Score (panel B) (PPARγ): 2.3
- NovaScreen Z-Score (panel A) (Human PPARγ): 14.7
- NovaScreen Z-Score (panel B) (Human PPARγ): 14.7

Structure (SMILES): O=C(O)c1cc(Oc2ccc(C(F)(F)F)cc2Cl)ccc1[N+](=O)[O-] [Acifluorfen]
- NovaScreen Z-Score (panel B) (Human PPARγ): 7.1

Structure (SMILES): CCOP(=O)(NC(C)C)Oc1ccc(SC)c(C)c1 (stereo not shown) [Fenamiphos]
- Tox21/NCGC Z-Score (panel A) (PPARγ): 7.0
- Tox21/NCGC Z-Score (panel B) (PPARγ): 7.0
- NovaScreen Z-Score (panel A) (Human PPARγ): 6.4
- NovaScreen Z-Score (panel B) (Human PPARγ): 6.4

Structure (SMILES): CCCCC(O)(Cn1cncn1)c1ccc(Cl)cc1Cl (stereo not shown) [Hexaconazole]
- Tox21/NCGC Z-Score (panel A) (PPARγ): 7.2
- NovaScreen Z-Score (panel A) (Human PPARγ): 5.0

Structure (SMILES): CC(C)NC(=O)N1CC(=O)N(c2cc(Cl)cc(Cl)c2)C1=O [Iprodione]
- Tox21/NCGC Z-Score (panel A) (PPARγ): 5.1
- Tox21/NCGC Z-Score (panel B) (PPARγ): 5.1
- NovaScreen Z-Score (panel A) (Human PPARγ): 10.0
- NovaScreen Z-Score (panel B) (Human PPARγ): 10.0

Structure (SMILES): CC(C)=CC1C(C(=O)OCN2C(=O)C3=C(CCCC3)C2=O)C1(C)C (stereo not shown) [Tetramethrin]
- Tox21/NCGC Z-Score (panel A) (PPARγ): -5.8
- NovaScreen Z-Score (panel A) (Human PPARγ): 1.4

Structure (SMILES): CCCCOC(=O)C(C)Oc1ccc(Oc2ccc(C(F)(F)F)cn2)cc1 (stereo not shown) [Fluazifop-butyl]
- NovaScreen Z-Score (panel B) (Human PPARγ): 11.9

Structure (SMILES): COc1nn(CSP(=S)(OC)OC)c(=O)s1 [Methidathion]
- NovaScreen Z-Score (panel A) (Human PPARγ): 15.2
- NovaScreen Z-Score (panel B) (Human PPARγ): 15.2

Structure (SMILES): CCOc1nc(F)cc2nc(S(=O)(=O)Nc3c(Cl)cccc3Cl)nn12 [Diclosulam]
- Tox21/NCGC Z-Score (panel B) (PPARγ): 9.6

Structure (SMILES): CCNc1nc(NC(C)C)nc(SC)n1 [Ametryn]
- Tox21/NCGC Z-Score (panel A) (PPARγ): 1.1
- NovaScreen Z-Score (panel A) (Human PPARγ): -0.8

Structure (SMILES): COP(=O)(OC)C(O)C(Cl)(Cl)Cl (stereo not shown) [Trichlorfon]
- Tox21/NCGC Z-Score (panel A) (PPARγ): 11.0

Structure (SMILES): CCNc1nc(Cl)nc(NC(C)C)n1 [Atrazine]
- Tox21/NCGC Z-Score (panel A) (PPARγ): 14.1
- Tox21/NCGC Z-Score (panel B) (PPARγ): 14.1
- NovaScreen Z-Score (panel A) (Human PPARγ): 13.4
- NovaScreen Z-Score (panel B) (Human PPARγ): 13.4

Structure (SMILES): O=C(O)CCCOc1ccc(Cl)cc1Cl [2,4-DB]
- Tox21/NCGC Z-Score (panel B) (PPARγ): 6.7

Structure (SMILES): CS(=O)(=O)c1cc(C(F)(F)F)ccc1C(=O)c1cnoc1C1CC1 [Isoxaflutole]
- Tox21/NCGC Z-Score (panel B) (PPARγ): 6.0

Structure (SMILES): CCSC(=O)N1CCCCCC1 [Molinate]
- NovaScreen Z-Score (panel B) (Human PPARγ): 16.0

Structure (SMILES): CCCOC/C(=N\c1ccc(Cl)cc1C(F)(F)F)n1ccnc1 [Triflumizole]
- Tox21/NCGC Z-Score (panel A) (PPARγ): -3.6
- NovaScreen Z-Score (panel A) (Human PPARγ): -0.8

Structure (SMILES): CCCSP(=O)(OCC)SCCC [Ethoprop]
- NovaScreen Z-Score (panel B) (Human PPARγ): 9.2

Structure (SMILES): Oc1ccccc1-c1ccccc1 [2-Phenylphenol]
- NovaScreen Z-Score (panel A) (Human PPARγ): 11.2
- NovaScreen Z-Score (panel B) (Human PPARγ): 11.2
